Data as given in PMC10163288.
This is one part of the list.

B1: il2ra_site1_2b5i_normal_mot_f5ff40796168375b462bec8614a1db4a_0001_1_000000138_0001_53_65_H_._HHH_b1_01133_0001_0000400021_0000001_0 (protein)
chain: SSSSSSSAEDLIEAFEEEAKRIEDPKRARSILHLAVALARANNNEELLEELEELLREVQSSSSSS
B2: il2ra_site2_3nfp_sap_29_mot_HHH_b1_07052_000000239_0001_40_58_H_._5f20bd37ef72b54d9d5808571b4331c8_0001_0001_0000400061_0000001_0_0001_af2pred_0001_1_af2pred_sw … (protein)
chain: SREAAELIQKLLEERPRDDLLSIIFALKADAKYLGNPEYVEKRVEELLEETGDPRLEEVLKLLKK
B3: il2ra_site2_2erj_sap_17_mot_HHH_b1_05198_000000252_0001_1_19_H_._HHH_b1_05377_af2_0001_0000100002_0000001_0_0001 (protein)
chain: SSSSDEEEIEELLEELKEALERGDEELFNRIATRVFELIKKLGDEELARILWRLMREFFNHSSSS
B4: il2ra_site1_1z92_normal_mot_HHH_b1_06519_000000232_0001_23_40_H_._HHH_b2_05843_af2_0001_0000400027_0000001_0 (protein)
chain: SSSSSSEEAIERLAEFLHRDARLTNNEWALRLLEALLRKAERAGDEELAKLIEELIERLKSSSSS
B5: il2ra_site2_3nfp_sap_21_mot_HHH_b1_07318_af2_000000161_0001_22_38_H_._faa969ecf94ee580e2909d366af2a6ce_0001_1_0001_0000200008_0000001_0_0001 (protein)
chain: SSSSSSVAELVQKAMELIKRGNLEEAEELLEEARKEAEEEGDEDTQRYLEALILLLRRESSSSSS
B6: il2ra_site1_3nfp_sap_11_mot_HHH_b2_07135_af2_000000166_0001_22_39_H_._HHH_b1_06265_af2_0001_0000100004_0000001_0_0001 (protein)
chain: DVAEMAIRHAVERNNPRLVERFLEQIERHFRRGNPAAKEAIELLEELLEELGNEELLEEVEKVRK
B7: il2ra_site2_2erj_sap_26_mot_HHH_b1_00245_000000182_0001_1_15_H_._1c4a7000c98f6bc3c941df408db38b63_0001_0001_0001900020_0000001_0_0001 (protein)
chain: SSSSDEIEEEVLELIAEAAHIPDPEKAREVLEKALEIAEEGNDELLRRYVELSLEDLRRASSSSS
B8: il2ra_site2_3nfp_normal_mot_HHH_b1_02369_000000291_0001_21_37_H_._HHH_b1_05396_af2_0001_0000500016_0000001_0 (protein)
chain: SSSSDERERAEELLKEVEELEEEGDRFELLRLLAEATHVAARANDEEIARRLLEIFAELQSSSSS
B9: il2ra_site2_2erj_normal_mot_HHH_b2_06005_000000006_0001_1_15_H_._HHH_b2_01138_af2_0001_0001100031_0000001_0_af2pred_0001_af2pred (protein)
chain: SSSSSELEERVRELLEEAKRIEDPDEALAVLSEAFELVLKNDDEELEEEVLRVLREVNNRSSSSS
B10: il2ra_site2_2erj_sap_27_mot_HHH_b2_04662_000000013_0001_42_56_H_._HHH_b2_03290_0001_0000400030_0000001_0_0001 (protein)
chain: SSSSDLEERVEELLEQVEELRENGDPLRAYSLLAEASLLAFRHNNEELLKKIAEVTRRVWESSSS
B11: il2ra_site2_2erj_normal_mot_HHH_b1_06554_af2_000000190_0001_44_57_H_._HHH_b1_08046_af2_0001_0001100032_0000001_0 (protein)
chain: SSSSSDTLEELEELAEELAEEGDRAYLELILRYLELNREDDNNDEVREAYRIVEELLQRLSSSSS
B12: il2ra_site1_3nfp_normal_mot_HHH_b1_00630_af2_000000193_0001_42_55_H_._56b2e862c5d7020fcb9d25388f5aedda_0001_0001_0000100013_0000001_0 (protein)
chain: DVAERLLEEAKKDGSLKAVSSVARAVAFHRRDPELEERIRELAEKAEENPEVREELIRLAEELLK
B13: il2ra_site1_3nfp_sap_17_mot_HHH_b1_00258_000000025_0001_42_56_H_._HHH_b1_04957_af2_0001_0000600026_0000001_0_0001_af2pred_0001_af2pred_swapped (protein)
chain: STVAIFLELAEKDKGDPEKAIERIIKAIERLRRVPPEEALEFLLEVARRLGNPELERIIEELLRK
B14: il2ra_site2_3nfp_normal_mot_HHH_b2_05513_000000198_0001_20_37_H_._52c50354b804bec8c3157ba16786ada3_0001_0001_0001000025_0000001_0_af2pred_0001_1_af2pred_swapped (protein)
chain: DDLEERLRRSAELAGDPHDAVVFFIAFLEYELGDPEEAIELALEVAEELGDPELERIIRELRKLP
B15: il2ra_site2_3nfp_sap_32_mot_HHH_b1_00050_000000292_0001_22_38_H_._HHH_b2_06764_0001_0000600039_0000001_0_0001 (protein)
chain: SSSSDESEEYFEAAFELVRLALEAGDPEAARRLLEMLELVAESQNDPELQRLVEELEEELSSSSS
B16: il2ra_site1_3nfp_sap_19_mot_ems_3hC_775_af2_000000072_0001_42_60_H_._7b9cde51a6333c7db752d4c93e9fe982_0001_af2_0001_0000100009_0000001_0_0001_af2pred_0001_af2pr … (protein)
chain: SSSSSREEVYKLLEEALRAAFNGNPEEAREILEEAEKIAKENNNEKAQKAVEKLEKSIKKGSSSS
B17: il2ra_site1_1z92_normal_mot_HHH_b2_00879_000000067_0001_1_17_H_._ems_3hC_963_0001_0000100004_0000001_0_af2pred_0001_af2pred (protein)
chain: SDAEEYFEKLLEEVRRIAEEKNNEEVRKLVEEAEELWKEAEEKDDFRASHEAMRIVIKARTLANS
B18: il2ra_site2_2erj_normal_mot_HHH_eva_0356_af2_000000103_0001_44_59_H_._ems_3hM_3512_0001_0000400007_0000001_0 (protein)
chain: SSNFVELLYELLRLADEAAENNDEELLREVEELIEEIRKEATDDAAREMAERALQMVEHVANASS
B19: il2ra_site1_1z92_sap_11_mot_HHH_b2_08161_000000286_0001_23_39_H_._c9d962b5daa49a68032752cb3d68fa00_0001_1_0002_0000200020_0000001_0_0001_af2pred_0001_af2pred (protein)
chain: GEELLKKIEEKAGGDPARIEQILLDLAHEALRKNDEELLEEVIEAIALLSDTPPEWARKQAEAVP
B20: il2ra_site1_1z92_sap_33_mot_HHH_b2_03816_af2_000000009_0001_40_54_H_._HHH_b2_06209_af2_0001_0000400019_0000001_0_0001_af2pred_0001_af2pred (protein)
chain: SSSSDLEEAAERLVEEIVEKLGLSEEQERVLRRLAELAVEAGLSERSIKRALEREAEFDRSSSSS
B21: il2ra_site2_2erj_sap_19_mot_HHH_b1_08207_af2_000000250_0001_43_57_H_._HHH_b1_06013_af2_0001_0000200012_0000001_0_0001 (protein)
chain: SSSSEEAEELLEKAEELLKKGNPEEAWRVLRRAATLAFRLGDEELFARLAELFEEAARLDVSSSS
B22: il2ra_site1_3nfp_sap_8_mot_HHH_b1_05162_af2_000000139_0001_1_18_H_._HHH_b2_03092_0001_0000300045_0000001_0_0001 (protein)
chain: SSSSDESEEVLEEVEELLREAWERGDVELYYEIARRAVEILEELNDPEALQRLFELAKHISSSSS
B23: il2ra_site2_2erj_sap_29_mot_HHH_b1_06627_000000072_0001_40_54_H_._HHH_b2_07310_af2_0001_0000100002_0000001_0_0001 (protein)
chain: SSSSDEEVLEAIEWAAEEEAKKDPEKARLYLELAERFAEISGDEEALERIEELLEELRKGSSSSS
B24: il2ra_site2_3nfp_normal_mot_HHH_b1_07242_000000112_0001_19_39_H_._ems_3hM_250_0001_0000100001_0000001_0 (protein)
chain: SNEELEEYIEVALRLAKEAARDPEIREKIEEVLEEFEKAKEKNDEHALSEVLQLALELAKEAAKS

Each binder was assayed against il2ra, P01589 (assay: yeast display titration).

Apparent Kd, inactive:
B1 no binding seen
B2 no binding seen
B3 no binding seen
B4 no binding seen
B5 no binding seen
B6 no binding seen
B7 no binding seen
B8 no binding seen
B9 no binding seen
B10 no binding seen
B11 no binding seen
B12 no binding seen
B13 no binding seen
B14 no binding seen
B15 no binding seen
B16 no binding seen
B17 no binding seen
B18 no binding seen
B19 no binding seen
B20 no binding seen
B21 no binding seen
B22 no binding seen
B23 no binding seen
B24 no binding seen

Two entries drawn at random from those above, as already listed:
Apparent Kd, inactive:
B2 no binding seen
B16 no binding seen
